Laboratory results: PubChem BioAssay AID1224826 (NIAID, 2016)
In all, the deposit lists about 17,000 reagents; shown is an unselected part. About 1,110 of all reagents (6.6%) count as active. 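Active means lowered or raised reporter signal; replicate intensities are raw and not normalised per plate.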 The numbers tell different reagents against one gene apart. Not all columns of the deposit are shown.

- Aim: 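Genes that change LPS-induced Tnf promoter activity in mouse macrophages when knocked down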 (primary screen)
- Cells: RAW264.7 G9 macrophages from mouse bearing reporters for p65 (GFP) and the Tnf promoter (mCherry)
- Reagent: siRNA pool against mouse genes, 100 nM
- Time to read-out: 16 h of LPS stimulation, after 2 days of siRNA transfection
- Challenge: bacterial lipopolysaccharide (Salmonella minnesota R595), 10 ng/ml
- Measured: 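Imaged Tnf reporter mCherry in nuclei, minus background, normalised per plate to the median and expressed as robust z-scores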
- Direction: Tnf reporter robust z-score: higher = stronger Tnf promoter reporter signal after LPS
- Active means: 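a well counts as active at a score of -1.3 or below (Tlr4 knock-down control median) or above 3 (raised signal); controls and wells holding fewer than 50 cells are excluded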
- Calls: active = Tnf reporter clearly lowered or raised; inactive = no clear change in Tnf reporter

no.	Gene	reagent	Tnf reporter robust z-score	fewer than 50 cells in well	Call
1	Mtx1 (metaxin 1)	1	0.63	enough cells in well	inactive
2	Zan (zonadhesin)	1	1.04	enough cells in well	inactive
3	Klra4 (killer cell lectin-like receptor, subfamily A, member 4)	1	-0.7	enough cells in well	inactive
4	Calm1 (calmodulin 1)	1	-0.14	enough cells in well	inactive
5	Spire2 (spire type actin nucleation factor 2)	1	0.65	enough cells in well	inactive
6	Mrps14 (mitochondrial ribosomal protein S14)	1	1.83	enough cells in well	inactive
7	Sphk2 (sphingosine kinase 2)	1	0.74	enough cells in well	inactive
8	Iba57 (IBA57 iron-sulfur cluster assembly factor)	1		fewer than 50 cells per well; well left out of calls	inactive
9	Iba57 (IBA57 iron-sulfur cluster assembly factor)	2	0.34	enough cells in well	inactive
10	Cadm4 (cell adhesion molecule 4)	1	-1.25	enough cells in well	inactive
11	Alkbh5 (alkB homolog 5, RNA demethylase)	1	-0.42	enough cells in well	inactive
12	Htr4 (5 hydroxytryptamine (serotonin) receptor 4)	1	-0.4	enough cells in well	inactive
13	Ckb (creatine kinase, brain)	1	0.06	enough cells in well	inactive
14	Alas2 (aminolevulinic acid synthase 2, erythroid)	1	0.46	enough cells in well	inactive
15	Acvr2b (activin receptor IIB)	1		fewer than 50 cells per well; well left out of calls	inactive
16	Mtch1	1	-0.92	enough cells in well	inactive
17	Itsn1 (intersectin 1 (SH3 domain protein 1A))	1	1.6	enough cells in well	inactive
18	LTO1 (ABCE maturation factor)	1	0.72	enough cells in well	inactive
19	Sema7a	1		fewer than 50 cells per well; well left out of calls	inactive
20	Sh3bp5l (SH3 binding domain protein 5 like)	1	-0.7	enough cells in well	inactive
21	A530020G20Rik (RIKEN cDNA A530020G20 gene)	1	-0.25	enough cells in well	inactive
22	Rpl36al (ribosomal protein L36A-like)	1	-0.66	enough cells in well	inactive
23	Klra8 (killer cell lectin-like receptor, subfamily A, member 8)	1	-0.41	enough cells in well	inactive
24	Naprt (nicotinate phosphoribosyltransferase)	1	-0.2	enough cells in well	inactive

Laid out differently: results already given
Gene | reagent | Tnf reporter robust z-score | fewer than 50 cells in well | Call
Iba57 (IBA57 iron-sulfur cluster assembly factor) | 1 | – | fewer than 50 cells per well; well left out of calls | inactive
Iba57 (IBA57 iron-sulfur cluster assembly factor) | 2 | 0.34 | enough cells in well | inactive
Cadm4 (cell adhesion molecule 4) | 1 | -1.25 | enough cells in well | inactive
Alkbh5 (alkB homolog 5, RNA demethylase) | 1 | -0.42 | enough cells in well | inactive
Htr4 (5 hydroxytryptamine (serotonin) receptor 4) | 1 | -0.4 | enough cells in well | inactive
Ckb (creatine kinase, brain) | 1 | 0.06 | enough cells in well | inactive
Alas2 (aminolevulinic acid synthase 2, erythroid) | 1 | 0.46 | enough cells in well | inactive
Acvr2b (activin receptor IIB) | 1 | – | fewer than 50 cells per well; well left out of calls | inactive

More records follow.
no.	Gene	reagent	Tnf reporter robust z-score	fewer than 50 cells in well	Call
25	Kcnh3	1	-0.35	enough cells in well	inactive
26	Camk1 (calcium/calmodulin-dependent protein kinase I)	1	0.91	enough cells in well	inactive
27	Rit2 (Ras-like without CAAX 2)	1	-1.06	enough cells in well	inactive
28	Cdkl4 (cyclin dependent kinase like 4)	1	1.69	enough cells in well	inactive
29	Piwil1 (piwi-like RNA-mediated gene silencing 1)	1	1.38	enough cells in well	inactive
30	Midn (midnolin)	1	1.22	enough cells in well	inactive
31	Olfr242 (olfactory receptor 242)	1	2.13	enough cells in well	inactive
32	Itprid2 (ITPR interacting domain containing 2)	1	1.35	enough cells in well	inactive
33	Xylb (xylulokinase homolog (H. influenzae))	1	0.89	enough cells in well	inactive
34	Fam171b (family with sequence similarity 171, member B)	1	-1.4	enough cells in well	active
35	Mcpt9 (mast cell protease 9)	1	-0.59	enough cells in well	inactive
36	Adarb2 (adenosine deaminase, RNA-specific, B2)	1	-0.65	enough cells in well	inactive
37	Decr2 (2-4-dienoyl-Coenzyme A reductase 2, peroxisomal)	1	-0.4	enough cells in well	inactive
38	Usp1 (ubiquitin specific peptidase 1)	1	0.68	enough cells in well	inactive
39	Omg (oligodendrocyte myelin glycoprotein)	1	2.29	enough cells in well	inactive
40	Iws1 (IWS1, SUPT6 interacting protein)	1	5.12	enough cells in well	active
41	Gbe1 (1,4-alpha-glucan branching enzyme 1)	1	0.13	enough cells in well	inactive
42	Arln (allregulin)	1		fewer than 50 cells per well; well left out of calls	inactive
43	Cox16 (cytochrome c oxidase assembly protein 16)	1		fewer than 50 cells per well; well left out of calls	inactive
44	Cox4i1 (cytochrome c oxidase subunit 4I1)	1	-0.37	enough cells in well	inactive
45	L2hgdh (L-2-hydroxyglutarate dehydrogenase)	1	0.91	enough cells in well	inactive
46	Frmd8 (FERM domain containing 8)	1		fewer than 50 cells per well; well left out of calls	inactive
47	Skic2 (SKI2 subunit of superkiller complex)	1	-0.69	enough cells in well	inactive
48	Rwdd1 (RWD domain containing 1)	1		fewer than 50 cells per well; well left out of calls	inactive
49	Sdf2 (stromal cell derived factor 2)	1	0.46	enough cells in well	inactive
50	Il19 (interleukin 19)	1	0.19	enough cells in well	inactive
51	Vwc2 (von Willebrand factor C domain containing 2)	1	1.94	enough cells in well	inactive
52	Mis18bp1 (MIS18 binding protein 1)	1	-0.07	enough cells in well	inactive
53	Slc1a6	1		fewer than 50 cells per well; well left out of calls	inactive
54	Eps8l2 (EPS8-like 2)	1	1.54	enough cells in well	inactive
55	Ezr (ezrin)	1	-0.8	enough cells in well	inactive
56	Rapgef1 (Rap guanine nucleotide exchange factor (GEF) 1)	1	-0.68	enough cells in well	inactive
57	Nmt2 (N-myristoyltransferase 2)	1	1.66	enough cells in well	inactive
58	Ank1 (ankyrin 1, erythroid)	1		fewer than 50 cells per well; well left out of calls	inactive
